From article PMC3108608 (Frontiers in Pharmacology, 2011)

Biological target: T1, mPGES-1 (Homo sapiens, UniProt O14684)
T1 construct: microsomal preparations of IL-1β-stimulated A549 cells, a rich source of mPGES-1; endogenous in cells; host or cells: A549 cells, IL-1β-stimulated, microsomal fraction
T1 sequence (O14684 1-152): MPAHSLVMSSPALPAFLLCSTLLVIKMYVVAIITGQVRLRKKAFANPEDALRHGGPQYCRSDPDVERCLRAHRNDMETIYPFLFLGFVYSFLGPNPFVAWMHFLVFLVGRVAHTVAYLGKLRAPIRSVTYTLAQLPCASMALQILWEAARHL
Assay: PGE2 synthase activity in microsomes of IL-1β-stimulated A549 cells
Type: biochemical

CC(C)=CCCC1(C)C(CC=C(C)C)CC2(CC=C(C)C)C(=O)C1(C(=O)C(C)C)C(=O)C(CC=C(C)C)=C2O (centres unmarked) [Hyp, Hyperforin]
effect of decreasing the PGH2 concentration on potency: did not significantly alter the potency | inhibition at 10 µM (read-out: inhibition of PGE2 formation (mPGES-1 activity)): 85 ± 2%
